Test results as given in article PMC7823470, “Arabidopsis Plant Natriuretic Peptide Is a Novel Interactor of Rubisco Activase” (Life, 2020).

T1: pAtPNP-A, N-terminally biotinylated AtPNP-A(33–66) peptide containing the active region of AtPNP-A (Arabidopsis thaliana) (UniProt Q9ZV52)
T1 sequence (peptide, biotin on the N-terminus; two cysteine residues forming a disulfide bond): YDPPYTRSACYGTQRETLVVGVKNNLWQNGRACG


Target: T1, pAtPNP-A, N-terminally biotinylated AtPNP-A(33–66) peptide containing the active region of AtPNP-A (Arabidopsis thaliana)
Assay: affinity purification with mass spectrometry; N-terminally biotinylated peptide bait incubated 15 min with A. thaliana (Col-0) protein extract, no cross-linker, Dynabeads M-280 for 30 min (biotin-streptavidin), eluate on SDS-PAGE, in-gel trypsin digestion, LC-MS/MS; pScr as negative control; three independent experiments; only the target purified

Row | binding | Binder
1 | binds | Glyceraldehyde-3-phosphate dehydrogenase B subunit (GAPB) (enzyme, UniProt P25857 81-447) KLKVAINGFGRIGRNFLRCWHGRKDSPLEVVVLNDSGGVKNASHLLKYDSMLGTFKAEVKIVDNETISVDGKLIKVVSNRDPLKLPWAELGIDIVIEGTGVFVDGPGAGKHIQAGASKVIITAPAKGADIPTYVMGVNEQDYGHDVANIISNASCTTNCLAPFAKVLDEEFGIVKGTMTTTHSYTGDQRLLDASHRDLRRARAAALNIVPTSTGAAKAVSLVLPQLKGKLNGIALRVPTPNVSVVDLVINVEKKGLTAEDVNEAFRKAANGPMKGILDVCDAPLVSVDFRCSDVSTTIDSSLTMVMGDDMVKVVAWYDNEWGYSQRVVDLAHLVASKWPGAEAVGSGDPLEDFCKTNPADEECKVYD
2 | binds | Protochlorophyllide oxidoreductase C (PORC) (enzyme, UniProt O48741 68-401) QTVTATPPANEASPEQKKTERKGTAVITGASSGLGLATAKALADTGKWHVIMACRNFLKAEKAARSVGMSKEDYTVMHLDLASLESVKQFVENFRRTEQPLDVLVCNAAVYQPTAKEPSFTAEGFEISVGTNHLGHFLLSRLLLDDLKKSDYPSKRMIIVGSITGNTNTLAGNVPPKANLGDLRGLASGLNGQNSSMIDGGEFDGAKAYKDSKVCNMLTMQELHRRYHEETGVTFASLYPGCIATTGLFREHIPLFRLLFPPFQKYITKGYVSEEEAGKRLAQVVSDPSLGKSGVYWSWNNNSSSFENQLSKEASDAEKAKKLWEVSEKLVGLA

These are yes or no findings as the source states them, for the method shown. In cells and extracts the contact can be indirect. Here binding means that the protein was enriched with, or labelled near, the bait; the list need not be complete.
